Reference: the supplement of paper PMC10849652
This is one part of the list. Residues, ends and D or L forms follow the SMILES beside them. *: point of attachment. Cbz = O=C(OCc1ccccc1)*

Chains of the proteins cited; added tags and fusions are not shown. Lines headed by an entry give the natural chain unless they say otherwise; changes in a name come on top.
UniProt Q9NWH9: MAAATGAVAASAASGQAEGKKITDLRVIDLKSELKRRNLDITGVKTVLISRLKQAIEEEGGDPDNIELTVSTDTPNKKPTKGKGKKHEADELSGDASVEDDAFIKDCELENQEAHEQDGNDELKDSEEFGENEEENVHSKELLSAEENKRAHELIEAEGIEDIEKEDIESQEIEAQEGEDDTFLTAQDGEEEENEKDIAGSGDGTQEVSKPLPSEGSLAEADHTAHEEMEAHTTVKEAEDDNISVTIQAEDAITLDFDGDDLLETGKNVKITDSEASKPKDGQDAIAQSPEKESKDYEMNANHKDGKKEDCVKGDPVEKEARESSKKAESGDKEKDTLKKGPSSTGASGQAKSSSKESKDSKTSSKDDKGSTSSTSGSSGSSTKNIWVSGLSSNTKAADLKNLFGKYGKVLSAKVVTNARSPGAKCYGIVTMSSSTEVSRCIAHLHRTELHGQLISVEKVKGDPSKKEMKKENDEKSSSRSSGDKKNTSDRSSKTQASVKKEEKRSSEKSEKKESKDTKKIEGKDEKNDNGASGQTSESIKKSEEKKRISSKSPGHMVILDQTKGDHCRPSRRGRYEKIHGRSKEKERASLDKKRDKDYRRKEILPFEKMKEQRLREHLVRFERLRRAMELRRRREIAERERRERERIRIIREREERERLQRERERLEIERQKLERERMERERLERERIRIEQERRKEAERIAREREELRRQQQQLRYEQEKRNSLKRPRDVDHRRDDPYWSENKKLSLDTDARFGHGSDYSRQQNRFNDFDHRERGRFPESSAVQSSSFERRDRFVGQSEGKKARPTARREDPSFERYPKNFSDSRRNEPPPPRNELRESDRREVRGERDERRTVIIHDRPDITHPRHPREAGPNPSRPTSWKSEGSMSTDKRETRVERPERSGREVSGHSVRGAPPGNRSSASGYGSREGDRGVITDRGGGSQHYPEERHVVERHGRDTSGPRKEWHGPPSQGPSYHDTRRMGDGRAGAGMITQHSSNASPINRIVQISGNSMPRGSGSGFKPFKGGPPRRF

What was measured:
Test in all cases: log2 fold change, soluble protein after heating vs DMSO (PISA); higher = thermal stabilisation; K562 cells, 10 uM, 30 min; active = over 0.2 and 3.5 SD of the protein, either way, in both replicates (recomputed)
erlotinib = compound: C#Cc1cccc(Nc2ncnc3cc(OCCOC)c(OCCOC)cc23)c1 [erlotinib]
In short: (§1)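 Quantification of soluble protein used TMTpro 16plex LC-MS/MS, with channel sums equalised. Samples were the supernatant after 21,000xg for 90 min of pooled aliquots from K562 cells (2×10^6 cells/mL) treated with 10 μM compound for 30 min, heated for 3 min over 48°C-58°C, and extracted in PBS with 0.5% NP-40 at 4°C. Values, from duplicates, describe thermal stability against control samples on a log2 fold-change scale.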

[1] = compound: C/C(=N\NC(=O)C1=CC(=CC=C1)S(=O)(=O)N2CCOCC2)/C3=C(C=CC(=C3)Cl)O
In short: as §1

[2] = compound: C1=CC(=C(C=C1Cl)C2=NC3=NC=CN=C3C(=N2)NC4=CC=NC=C4)F
In short: as §1

[3] = compound: C1=CC(=CC=C1C2=NC3=C(N2)C=C(C=C3)C(=O)N)OC4=CC=C(C=C4)Cl
In short: as §1

[4] = compound: C1=CC2=C(C=CC(=C2)/C=C\3/C(=O)NC(=NCC4=CC=CS4)S3)N=C1
In short: as §1

[5] = compound: C1=CC2=NC=CN=C2C=C1/C=C/3\C(=O)NC(=O)S3
In short: as §1

[6] = compound: C1=CC=C(C=C1)C2=NC(=C(N2)C3=CC=NC=C3)C4=CC(=C(C=C4)Cl)O
In short: as §1

[7] = compound: C1=CC=C(C=C1)[C@H](COC2=CC3=C(C=C2)NC(=O)N3)NC(=O)C4=CC=CN(C4=O)CC5=CC(=C(C=C5)F)F
In short: as §1

[8] = compound: C1=CC=C2C(=C1)C3=NNC4=CC=CC(=C43)C2=O
In short: as §1

[9] = compound: C1CCN(C1)C(=O)NC2=CC=CC(=C2)NC3=NC=C(C(=N3)NCCC4=CN=CN4)Br
In short: as §1

[10] = compound: C1CN(CCC1(CC2=CC=C(C=C2)Cl)N)C3=NC=NC4=C3C=CN4
In short: as §1

IRAK-1-4 Inhibitor I = compound: C1COCCN1CCN2C3=CC=CC=C3N=C2NC(=O)C4=CC(=CC=C4)[N+](=O)[O-] [IRAK-1-4 Inhibitor I]
In short: as §1

ibrutinib = compound: C=CC(=O)N1CCC[C@@H](n2nc(-c3ccc(Oc4ccccc4)cc3)c3c(N)ncnc32)C1 [ibrutinib]
In short: as §1

[11] = compound: CC(=O)c1cnc2ccc(-c3cc(Cl)c(O)c(Cl)c3)nc2c1N[C@H]1CC[C@H](CN(C)C)CC1
In short: as §1

ralimetinib = compound: CC(C)(C)Cn1c(N)nc2ccc(-c3[nH]c(C(C)(C)C)nc3-c3ccc(F)cc3)nc21 [ralimetinib]
In short: as §1

[12] = compound: CC(C)(O)CC(=O)NCCn1ccc2ncnc(Nc3ccc(Oc4cccc(C(F)(F)F)c4)c(Cl)c3)c21
In short: as §1

[13] = compound: CC(C)C1=C2N=C(C=C(N2N=C1)NCC3=CC=CC=C3)NCCCCCCN
In short: as §1

[14] = compound: CC(C)C[C@@H](C=O)NC(=O)[C@H](CC(C)C)NC(=O)[C@H](CC(C)C)NC(=O)OCc1ccccc1
In short: as §1

pinometostat = compound: CC(C)N(C[C@H]1O[C@@H](n2cnc3c(N)ncnc32)[C@H](O)[C@@H]1O)[C@H]1C[C@@H](CCc2nc3cc(C(C)(C)C)ccc3[nH]2)C1 [pinometostat]
In short: as §1

[15] = compound: CC1=C(C(CC(=O)N1)C2=CC=C(C=C2)C(F)(F)F)C(=O)NC3=C(C=C4C(=C3)C=NN4)F
In short: as §1

[16] = compound: CC1=C(C2=C(C=C1)C(=O)C3=CC=CC=C3N2CCCN)C
In short: as §1

[17] = compound: CC1=C(C=C(C=C1)NC(=O)C2=CC(=CC=C2)C(C)(C)C#N)NC3=CC4=C(C=C3)N=CN(C4=O)C
In short: as §1

[18] = compound: CC1=C(C=C(C=C1)NC(=O)C2=CC(=CC=C2)N(C)C)NC(=O)C3=CC=C(C=C3)O
In short: as §1

[19] = compound: CC1=C(SC2=C1C(=N[C@H](C3=NN=C(N32)C)CC(=O)N)C4=CC=C(C=C4)Cl)C
In short: as §1

[20] = compound: CC1=C2C(=CC=C1)N=C(N(C2=O)C3=CC=CC=C3C)CN4C=NC5=C(N=CN=C54)N
In short: as §1

[21] = compound: CC1=CC=C(C=C1)SC2=C3C=C(SC3=CN=C2)C(=O)N
In short: as §1

[22] = compound: CC1=NC(=CC=C1)C2=C(N=C(N2)C(C)(C)C)C3=CC4=NC=CN=C4C=C3
In short: as §1

Nexturastat A = compound: CCCCN(Cc1ccc(C(=O)NO)cc1)C(=O)Nc1ccccc1 [Nexturastat A]
In short: as §1

vemurafenib = compound: CCCS(=O)(=O)Nc1ccc(F)c(C(=O)c2c[nH]c3ncc(-c4ccc(Cl)cc4)cc23)c1F [vemurafenib]
In short: as §1

[23] = compound: CCCS(=O)(=O)Nc1ccc(F)c(C(=O)c2c[nH]c3ncc(Cl)cc23)c1F
In short: as §1

[24] = compound: CCCc1cc(C)[nH]c(=O)c1CNC(=O)c1cc(-c2ccnc(N3CCN(C)CC3)c2)cc2c1cnn2C(C)C
In short: as §1

givinostat = compound: CCN(CC)Cc1ccc2cc(COC(=O)Nc3ccc(C(=O)NO)cc3)ccc2c1 [givinostat]
In short: as §1

barasertib = compound: CCN(CCCOc1ccc2c(Nc3cc(CC(=O)Nc4cccc(F)c4)[nH]n3)ncnc2c1)CCOP(=O)(O)O [barasertib]
In short: as §1

[25] = compound: CC[C@@H]1C(=O)N(C)c2cnc(Nc3ccc(C(=O)NC4CCN(C)CC4)cc3OC)nc2N1C1CCCC1
In short: as §1

volasertib = compound: CC[C@@H]1C(=O)N(C)c2cnc(Nc3ccc(C(=O)N[C@H]4CC[C@H](N5CCN(CC6CC6)CC5)CC4)cc3OC)nc2N1C(C)C [volasertib]
In short: as §1

[26] = compound: CC[C@H](C)N1C=C(C2=C(C=C(C=C21)C3=CN=C(C=C3)N4CCNCC4)C(=O)NCC5=C(C=C(NC5=O)C)C)C
In short: as §1

epoxomicin = compound: CC[C@H](C)[C@@H](C(=O)N[C@@H]([C@@H](C)O)C(=O)N[C@@H](CC(C)C)C(=O)[C@]1(CO1)C)NC(=O)[C@H]([C@@H](C)CC)N(C)C(=O)C [epoxomicin]
In short: as §1

[27] = compound: CCn1c(C(=O)N(C2CC2)C2CC2)cc2c3c(ncn3C)c(Nc3cc(C)n(C)n3)nc21
In short: as §1

[28] = compound: CCn1cc(-c2ccnc3[nH]c(-c4cccc(CN(C)C)c4)cc23)c(-c2ccc(NC(=O)N(C)C)cc2)n1
In short: as §1

[29] = compound: CN(C)CC(=O)Nc1ccc2[nH]c(=O)c3ccccc3c2c1
In short: as §1

rosiglitazone = compound: CN(CCOC1=CC=C(C=C1)C[C@H]2C(=O)NC(=O)S2)C3=CC=CC=N3 (racemic) [rosiglitazone]
In short: as §1

[30] = compound: CN1C2=C(C3=C1C(=O)N(N=C3)CC4=CC(=CC=C4)N)SC(=C2)S(=O)C
In short: as §1

[31] = compound: CN1CCC(CNc2ccc3ncc(-c4cccc(OC(F)(F)F)c4)n3n2)CC1
In short: as §1

saracatinib = compound: CN1CCN(CCOc2cc(OC3CCOCC3)c3c(Nc4c(Cl)ccc5c4OCO5)ncnc3c2)CC1 [saracatinib]
In short: as §1

sotrastaurin = compound: CN1CCN(c2nc(C3=C(c4c[nH]c5ccccc45)C(=O)NC3=O)c3ccccc3n2)CC1 [sotrastaurin]
In short: as §1

alvocidib = compound: CN1CC[C@H](c2c(O)cc(O)c3c(=O)cc(-c4ccccc4Cl)oc23)[C@H](O)C1 [alvocidib]
In short: as §1

Tubastatin A = compound: CN1CCc2c(c3ccccc3n2Cc2ccc(C(=O)NO)cc2)C1 [Tubastatin A]
In short: as §1

[32] = compound: CNC(=O)C1=CC=CC=C1NC2=NC(=NC=C2Cl)NC3=C(C=C(C=C3)N4CCOCC4)OC
In short: as §1

Measured: log2 fold change

SLTM (UniProt Q9NWH9)
inactive: erlotinib 0.005 | [1] -0.064 | [2] -0.425 | [3] -0.041 | [4] -0.077 | [5] -0.037 | [6] -0.247 | [7] 0.118 | [8] -0.013 | [9] -0.075 | [10] -0.002 | IRAK-1-4 Inhibitor I -0.072 | ibrutinib 0.109 | [11] 0.092 | ralimetinib 0.069 | [12] 0.139 | [13] 0.145 | [14] 0.115 | pinometostat 0.121 | [15] 0.009 | [16] -0.233 | [17] 0.007 | [18] -0.028 | [19] -0.315 | [20] -0.082 | [21] -0.07 | [22] -0.103 | Nexturastat A 0.269 | vemurafenib -0.076 | [23] -0.076 | [24] 0.043 | givinostat -0.029 | barasertib -0.152 | [25] 0.176 | volasertib 0.068 | [26] 0.008 | epoxomicin -0.25 | [27] 0.036 | [28] 0.177 | [29] -0.083 | rosiglitazone -0.131 | [30] 0.242 | [31] 0.252 | saracatinib 0.004 | sotrastaurin 0.064 | alvocidib 0.274 | Tubastatin A 0.125 | [32] -0.019
